PubChem BioAssay AID1259254, NCATS – 2017
Aim: 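Genome-wide screen for genes that prevent DNA re-replication in cancer cells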 (primary screen). Cell system: human HCT116 colorectal cancer cells. Knock-down reagent: single siRNA against human genes. Timing: 3 days. Measured: 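Nuclei stained with Hoechst and imaged; cell-cycle phase assigned by DNA content; G2 share scaled per plate, non-targeting siRNA 0%, GMNN siRNA 100%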. Reading the numbers: G2 robust z-score and G2 cells, % of GMNN control: higher = more G2 cells, more excess DNA replication. Hit rule: 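An siRNA counts as active if its G2 robust z-score lies at least 5 MADs above the screen median; here such calls match roughly 38% of GMNN control or more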.
In all, the deposit lists about 59,000 reagents; shown is a random part of them. Of all reagents, about 1,550 (2.6%) are marked active. 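G2 share is only a proxy for re-replication; each gene was hit by three separate siRNAs, and active genes were retested.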 Entries without a mark were called inactive. Reagents against one gene are numbered here. Further read-outs or replicates are left out here. No sequences are given here. The record does not give: the amount of reagent.

target gene	reagent no.	G2 robust z-score	G2 cells, % of GMNN control
HMGN1P21	1	1.08	10.6
HMGN1P21	2	0.338	5.35
HMGN1P21	3	-0.805	-2.69
USP17L9P	1	-0.77	-2.45
USP17L9P	2	-0.783	-2.54
USP17L9P	3	0.238	4.64
CYP4F8	1	-0.133	2.03
CYP4F8	2	-1.07	-4.59
CYP4F8	3	-0.635	-1.5
SSRP1	1	9.32 (active)	68.6
SSRP1	2	3.3	26.2
SSRP1	3	-0.899	-3.36

3 of these entries in another layout:
target gene,reagent no.,G2 robust z-score,"G2 cells, % of GMNN control"
CYP4F8,2,-1.07,-4.59
CYP4F8,3,-0.635,-1.5
SSRP1,1,9.32 (active),68.6

The results go on:
target gene	reagent no.	G2 robust z-score	G2 cells, % of GMNN control
THEM4	1	-0.233	1.33
THEM4	2	4.04	31.4
THEM4	3	0.0311	3.19
DDX4	1	-0.385	0.26
DDX4	2	-0.551	-0.908
DDX4	3	0.595	7.15
RAET1G	1	3.02	24.2
RAET1G	2	-0.814	-2.76
RAET1G	3	0.752	8.26
NDUFS4	1	0.0449	3.28
NDUFS4	2	1.79	15.6
NDUFS4	3	0.702	7.91
USP37	1	-0.598	-1.24
USP37	2	-0.687	-1.87
USP37	3	0.0186	3.1
DUSP8	1	0.386	5.69
DUSP8	2	-0.959	-3.78
DUSP8	3	-1.17	-5.29
